Measurements from PubChem BioAssay AID286 (DTP/NCI, 2004).
The list is a part of this screen's results and no random one: it is rich in T/C values a quarter to a half above the control, in often repeated tests (any T/C) and in doses without a T/C. Other doses and runs of a compound stand elsewhere. T/C gives the treated animals as a percentage of the vehicle group. Some entries give survivors of the animals treated and no T/C: the source files T/C as zero there, which appears to mark a toxic dose or a test without result, not a measured value. Some doses without a T/C left all or most animals alive at the check, yet need not have been tolerated: the source hardly ever lists a survival T/C far under the control, and the zero likely stands for such cases as well. Counts of survivors are from the toxicity check (mostly the fifth day) where no day follows; animals may have died later. Schedules are NCI's codes, read here as Q, the interval in days (D) or hours (H), X, the number of doses. Some doses were run more than once; the results are listed from low to high. For survival time, the PubChem record calls one and a half times the control and up active, and a quarter to a half above the control has no call in these data; cut-offs in other NCI protocols can differ. Some T/C values are followed by the survivors on the day toxicity was checked, most often the fifth; without a count, all were alive then. Additions like (4×) stand for listed records that agree. Starred links: 1 amine or outer side, 2 acyl side, 3 side chain; linkers in the order of their positions; H or OH if unused. Positions of bridges follow the written chain, without caps; N, C: chain ends. Non-standard residues stand in square brackets, D forms with d. Residues, ends and D or L forms follow the SMILES beside them. Chains are numbered I, II in the order given. Actinocin(9to1) = Cc1c2oc3c(C)ccc(C(=O)[*:1])c3nc-2c(C(=O)[*:2])c(N)c1=O; aThr = C[C@H](O)[C@H](N)C(=O)O; NMeV = CN[C@H](C(=O)O)C(C)C; Sar = CNCC(=O)O

Test system: BDF1 mice, M5076 sarcoma ip, median survival T/C
Test: NCI In Vivo Anticancer Drug Screen. Data for tumor model Sarcoma M5076 (intraperitoneal) in B6D2F1 (BDF1) mice
Conditions: T/C endpoint: median survival time, higher T/C = longer survival
Description: The antitumor activity of compounds was measured in mice bearing transplantable tumors. Survival or tumor size were measured and the results are expressed as the measurement made in the treated group (T) divided by the measurement made in the vehicle treated control group (C). The tumor model used in this assay is Sarcoma M5076 (intraperitoneal) in B6D2F1 (BDF1) mice

[1] = dose: 25.0 mg/kg/injection, schedule: Q04DX004 (ip), vehicle: saline
[2] = dose: 50.0 mg/kg/injection, schedule: Q04DX004 (ip), vehicle: saline
[3] = dose: 50.0 mg/kg/injection, schedule: Q04DX005 (ip), vehicle: saline
[4] = dose: 100.0 mg/kg/injection, schedule: Q04DX004 (ip), vehicle: saline
[5] = dose: 100.0 mg/kg/injection, schedule: Q04DX005 (ip), vehicle: saline

## CN(C)C(=O)c1cccc(COc2ccc(N3C(N)=NC(N)=NC3(C)C)cc2Cl)c1
dose: 6.25 mg/kg/injection, schedule: Q04DX004 (ip), vehicle: saline
  T/C: 96, 101 (2×), 102 % of control
dose: 6.25 mg/kg/injection, schedule: Q04DX005 (ip), vehicle: saline
  T/C: 95 (2×), 99, 108 % of control
dose: 12.5 mg/kg/injection, schedule: Q04DX004 (ip), vehicle: saline
  T/C: 99, 101 (2×), 105 % of control
dose: 12.5 mg/kg/injection, schedule: Q04DX005 (ip), vehicle: saline
  T/C: 93, 95, 99, 109 % of control
[1]
  T/C: 96, 101, 102 % of control
  survivor count: 8 of 10 on day 9
dose: 25.0 mg/kg/injection, schedule: Q04DX005 (ip), vehicle: saline
  T/C: 100, 102, 103, 116 % of control
[2]
  T/C: 97, 102 [8 of 10 alive on day 9], 125 % of control
  survivor count: 3 of 10 on day 9
[3]
  T/C: 97, 97 [9 of 10 alive on day 9], 99 % of control [9 of 10 alive on day 9]
  survivor count: 5 of 10 on day 9
[4]
  T/C: 116 % of control
  survivor count: 0 of 10 on day 9
[5]
  T/C: 100 % of control
  survivor count: 0 of 10 on day 9

## Cc1c2oc3c(C)ccc(C(=O)N[C@@H]4C(=O)N[C@H](C(C)C)C(=O)N5CCC[C@H]5C(=O)N(C)CC(=O)N(C)[C@@H](C(C)C)C(=O)O[C@H]4C)c3nc-2c(C(=O)N[C@@H]2C(=O)N[C@H](C(C)C)C(=O)N3CCC[C@H]3C(=O)N(C)CC(=O)N(C)[C@@H](C(C)C)C(=O)O[C@H]2C)c(N)c1=O (I: [aThr][dV]P[Sar][NMeV] / II: [aThr][dV]P[Sar][NMeV]; ester I:1-I:C, II:1-II:C; linker I:N-II:N via Actinocin(9to1))
dose: 0.03 mg/kg/injection, schedule: Q04DX004 (ip), vehicle: saline + alcohol
  T/C: 126 % of control
dose: 0.05 mg/kg/injection, schedule: Q04DX004 (ip), vehicle: saline + alcohol
  T/C: 147 % of control
dose: 0.4 mg/kg/injection, schedule: Q04DX004 (ip), vehicle: saline + alcohol
  survivor count: 8 of 8 on day 9
dose: 0.8 mg/kg/injection, schedule: Q04DX004 (ip), vehicle: saline + alcohol
  survivor count: 2 of 8 on day 9

## COc1cccc2c1C(=O)c1c(O)c3c(c(O)c1C2=O)C[C@@](O)(C(=O)CO)C[C@@H]3OC1CC(N)C(O)C(C)O1 (some centres undefined)
dose: 1.0 mg/kg/injection, schedule: Q04DX004 (ip), vehicle: saline
  T/C: 134 % of control
dose: 8.0 mg/kg/injection, schedule: Q04DX005 (ip), vehicle: saline
  survivor count: 2 of 8 on day 17
dose: 16.0 mg/kg/injection, schedule: Q04DX004 (ip), vehicle: saline
  survivor count: 0 of 10 on day 14

## C=C1C(=O)O[C@H]2C1[C@H](OC(=O)/C(C)=C\C)CC(=C)[C@@H]1C(=O)[C@H]3O[C@@]3(C)[C@@]12O (some centres undefined)
dose: 4.0 mg/kg/injection, schedule: Q01DX009 (ip), vehicle: saline + alcohol
  T/C: 125 % of control
dose: 8.0 mg/kg/injection, schedule: Q01DX009 (ip), vehicle: saline + alcohol
  T/C: 132 % of control [9 of 10 alive]
dose: 10.0 mg/kg/injection, schedule: Q01DX009 (ip), vehicle: saline + alcohol
  survivor count: 2 of 10 on day 9
dose: 20.0 mg/kg/injection, schedule: Q01DX009 (ip), vehicle: saline + alcohol
  survivor count: 0 of 10 on day 9
dose: 40.0 mg/kg/injection, schedule: Q01DX009 (ip), vehicle: saline + alcohol
  survivor count: 0 of 10 on day 9
dose: 80.0 mg/kg/injection, schedule: Q01DX009 (ip), vehicle: saline + alcohol
  survivor count: 0 of 10 on day 9

## C=C1C(O)C2OC3(CCC(/C=C/C(C)C4CC5(C)SC5C5(OC(CC(C)(O)C(=O)O)CCC5O)O4)O3)CCC2OC1C(O)CC(C)C1OC2(CCCCO2)CCC1C (centres undefined)
dose: 4.0 micrograms/kg/injection, schedule: Q01DX009 (ip), vehicle: saline + alcohol
  T/C: 128 % of control
dose: 5.0 micrograms/kg/injection, schedule: Q01DX009 (ip), vehicle: saline + alcohol
  survivor count: 0 of 10 on day 9
dose: 8.0 micrograms/kg/injection, schedule: Q01DX009 (ip), vehicle: saline + alcohol
  T/C: 140 % of control
dose: 10.0 micrograms/kg/injection, schedule: Q01DX009 (ip), vehicle: saline + alcohol
  survivor count: 0 of 10 on day 9
dose: 20.0 micrograms/kg/injection, schedule: Q01DX009 (ip), vehicle: saline + alcohol
  survivor count: 0 of 10 on day 9
dose: 40.0 micrograms/kg/injection, schedule: Q01DX009 (ip), vehicle: saline + alcohol
  survivor count: 0 of 10 on day 9

## CCC(C)C(N)C(=O)NC(CC(N)=O)C(=O)NC(CC(C)C)C(=O)NC(CCCCN)C(=O)NC(C)C(=O)NC(CC(C)C)C(=O)NC(C)C(=O)NC(C)C(=O)NC(CC(C)C)C(=O)NC(C)C(=O)NC(CCCCN)C(=O)NC(CCCCN)C(=O)NC(C(=O)NC(CC(C)C)C(N)=O)C(C)CC (centres undefined)
dose: 25.0 mg/kg/injection, schedule: Q01DX009 (ip), vehicle: Klucel (hydroxypropylcellulose) (HPC)
  survivor count: 0 of 10 on day 9

## COC1CC(C)C(OC)C2=CC(=O)C=C(NC(=O)/C(C)=C/C=C\C(C)C(OC(N)=O)/C(C)=C\C(C)C1OC)C2=O (centres undefined)
dose: 25.0 mg/kg/injection, schedule: Q04DX004 (ip), vehicle: saline + Tween-80 + alcohol
  survivor count: 3 of 10 on day 14
dose: 50.0 mg/kg/injection, schedule: Q04DX004 (ip), vehicle: saline + Tween-80 + alcohol
  survivor count: 0 of 10 on day 14
dose: 100.0 mg/kg/injection, schedule: Q04DX004 (ip), vehicle: saline + Tween-80 + alcohol
  survivor count: 0 of 10 on day 14

## CC1(C)N=C(N)N=C(N)N1c1ccc(CCCCc2ccc(S(=O)(=O)F)cc2Cl)c(Cl)c1
dose: 90.0 mg/kg/injection, schedule: Q01DX009 (ip), vehicle: saline with Tween-80
  survivor count: 10 of 10

## N[C@H](C(=O)O)[C@@H]1CC(Cl)=NO1
dose: 60.0 mg/kg/injection, schedule: Q04DX005 (ip), vehicle: saline
  T/C: 136 % of control
dose: 240.0 mg/kg/injection, schedule: Q04DX005 (ip), vehicle: saline
  survivor count: 4 of 8 on day 17
dose: 480.0 mg/kg/injection, schedule: Q04DX005 (ip), vehicle: saline
  survivor count: 2 of 8 on day 17

## CC[C@](O)(C(=O)O)c1cc2n(c(=O)c1CO)Cc1cc3ccccc3nc1-2
[1]
  T/C: 128 % of control
[2]
  T/C: 140 % of control [9 of 10 alive on day 14]
[4]
  survivor count: 2 of 10 on day 14
dose: 200.0 mg/kg/injection, schedule: Q04DX004 (ip), vehicle: saline
  survivor count: 0 of 9 on day 14

## CC[C@]1(O)C[C@H]2CN(CCc3c([nH]c4ccccc34)[C@@](C(=O)OC)(c3cc4c(cc3OC)N(C=O)[C@H]3[C@@](O)(C(=O)OC)[C@H](OC(C)=O)[C@]5(CC)C=CCN6CC[C@]43[C@@H]65)C2)C1
dose: 0.13 mg/kg/injection, schedule: Q04DX005 (ip), vehicle: saline
  T/C: 128 % of control
dose: 0.5 mg/kg/injection, schedule: Q04DX005 (ip), vehicle: saline
  T/C: 130 % of control
dose: 2.0 mg/kg/injection, schedule: Q04DX005 (ip), vehicle: saline
  survivor count: 1 of 8 on day 17 and 10 of 10

## COc1ccc(C(N)=O)cc1N=NN(C)C
dose: 12.5 mg/kg/injection, schedule: Q04DX004 (ip), vehicle: Klucel (hydroxypropylcellulose) (HPC)
  T/C: 126 % of control
dose: 25.0 mg/kg/injection, schedule: Q04DX004 (ip), vehicle: Klucel (hydroxypropylcellulose) (HPC)
  T/C: 130 % of control
dose: 50.0 mg/kg/injection, schedule: Q04DX004 (ip), vehicle: Klucel (hydroxypropylcellulose) (HPC)
  T/C: 140 % of control
dose: 100.0 mg/kg/injection, schedule: Q04DX004 (ip), vehicle: Klucel (hydroxypropylcellulose) (HPC)
  T/C: 146 % of control [9 of 10 alive on day 14]
dose: 200.0 mg/kg/injection, schedule: Q04DX004 (ip), vehicle: Klucel (hydroxypropylcellulose) (HPC)
  survivor count: 0 of 10 on day 14
